Data source: PubChem BioAssay AID1224830 (NIAID, 2016)

- Screen: 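Host factors that control LPS-induced TNF expression in human macrophages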 (primary screen)
- Cell system: human THP-1 monocytic leukaemia cells, TNF dual-luciferase reporter clone, PMA-differentiated to macrophage-like cells
- Reagent: siRNA pool against human genes, 50 nM
- Timing: LPS for 4 h, given about 3 days after siRNA transfection
- Treatment: bacterial LPS (TLR4 ligand), 10 ng/ml
- Measurement: 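Ratio of firefly to renilla light, scaled to the plate median and expressed as a robust z-score per replicate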
- Direction: TNF reporter robust z-score: higher = stronger TNF reporter response to LPS
- Active means: 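Each well counts as active if its z-score is over 2.8 or under -1.5; controls are left without a call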
Here is an unselected part of about 18,000 reagents. In the full data, about 2,900 (16%) got an active call. 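Calls are made per well; low scores hint the gene aids the LPS response, high scores that it dampens it.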 Repeated entries: four replicate wells of each siRNA pool.

target	TNF reporter robust z-score	activity call
ABCA9	0.87	inactive
ABCA9	0.92	inactive
ABCA9	0.22	inactive
ABCA9	1.31	inactive
GRXCR1	-0.13	inactive
GRXCR1	0.44	inactive
GRXCR1	0.53	inactive
GRXCR1	0.94	inactive
H2BC15	-0.54	inactive
H2BC15	0.21	inactive
H2BC15	0.22	inactive
H2BC15	0.14	inactive
LTA4H	0.21	inactive
LTA4H	0.83	inactive
LTA4H	0.78	inactive
LTA4H	0.86	inactive
SYCN	0.67	inactive
SYCN	1.16	inactive
SYCN	0.73	inactive
SYCN	0.99	inactive
CRYZ	-1.09	inactive
CRYZ	-0.39	inactive
CRYZ	-0.47	inactive
CRYZ	-1.06	inactive
SMR3B	0.18	inactive
SMR3B	-0.31	inactive
SMR3B	0.53	inactive
SMR3B	0.14	inactive
GPR155	0.76	inactive
GPR155	1.04	inactive
GPR155	0.36	inactive
GPR155	1.81	inactive
GRHL3	0.75	inactive
GRHL3	0.7	inactive
GRHL3	0.39	inactive
GRHL3	0.15	inactive
CDHR3	-0.27	inactive
CDHR3	-0.95	inactive
CDHR3	-0.57	inactive
CDHR3	-0.06	inactive
POLR1C	1.01	inactive
POLR1C	0.27	inactive
POLR1C	3.84	active
POLR1C	1.62	inactive
FAM111B	-0.64	inactive
FAM111B	0.16	inactive
FAM111B	1.02	inactive
FAM111B	0.83	inactive

Laid out differently: entries from further up
{"target":"POLR1C","TNF reporter robust z-score":3.84,"activity call":"active"}
{"target":"POLR1C","TNF reporter robust z-score":1.62,"activity call":"inactive"}
